# Results of single-concentration screens

Amino acid sequences for entries named in this document (tags omitted). Residues count along the entry.
UniProt A4I591, 1-473: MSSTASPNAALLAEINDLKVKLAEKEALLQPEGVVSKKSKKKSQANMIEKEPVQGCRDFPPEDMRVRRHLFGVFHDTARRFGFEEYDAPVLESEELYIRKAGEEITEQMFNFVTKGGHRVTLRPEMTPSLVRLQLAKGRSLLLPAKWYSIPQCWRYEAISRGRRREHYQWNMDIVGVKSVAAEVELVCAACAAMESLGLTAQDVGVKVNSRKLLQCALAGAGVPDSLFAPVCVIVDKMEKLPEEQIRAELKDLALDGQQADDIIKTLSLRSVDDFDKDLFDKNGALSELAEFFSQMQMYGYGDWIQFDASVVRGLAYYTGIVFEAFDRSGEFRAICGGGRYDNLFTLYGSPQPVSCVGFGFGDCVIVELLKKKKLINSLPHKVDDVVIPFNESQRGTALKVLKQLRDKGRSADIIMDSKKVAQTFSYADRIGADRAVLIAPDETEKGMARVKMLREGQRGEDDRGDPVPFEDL
UniProt P9WNZ1, whole entry: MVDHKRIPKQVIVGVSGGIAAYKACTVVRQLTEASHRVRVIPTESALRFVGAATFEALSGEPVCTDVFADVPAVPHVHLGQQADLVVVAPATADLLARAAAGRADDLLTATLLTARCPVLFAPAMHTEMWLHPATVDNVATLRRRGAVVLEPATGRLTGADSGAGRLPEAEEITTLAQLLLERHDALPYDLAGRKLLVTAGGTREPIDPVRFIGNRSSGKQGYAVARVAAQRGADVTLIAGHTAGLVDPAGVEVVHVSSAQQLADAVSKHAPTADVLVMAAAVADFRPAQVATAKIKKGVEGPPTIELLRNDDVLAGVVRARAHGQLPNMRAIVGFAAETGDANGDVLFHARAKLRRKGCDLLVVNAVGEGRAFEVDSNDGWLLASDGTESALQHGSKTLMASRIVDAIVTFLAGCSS
UniProt Q8IDJ8, 1-583: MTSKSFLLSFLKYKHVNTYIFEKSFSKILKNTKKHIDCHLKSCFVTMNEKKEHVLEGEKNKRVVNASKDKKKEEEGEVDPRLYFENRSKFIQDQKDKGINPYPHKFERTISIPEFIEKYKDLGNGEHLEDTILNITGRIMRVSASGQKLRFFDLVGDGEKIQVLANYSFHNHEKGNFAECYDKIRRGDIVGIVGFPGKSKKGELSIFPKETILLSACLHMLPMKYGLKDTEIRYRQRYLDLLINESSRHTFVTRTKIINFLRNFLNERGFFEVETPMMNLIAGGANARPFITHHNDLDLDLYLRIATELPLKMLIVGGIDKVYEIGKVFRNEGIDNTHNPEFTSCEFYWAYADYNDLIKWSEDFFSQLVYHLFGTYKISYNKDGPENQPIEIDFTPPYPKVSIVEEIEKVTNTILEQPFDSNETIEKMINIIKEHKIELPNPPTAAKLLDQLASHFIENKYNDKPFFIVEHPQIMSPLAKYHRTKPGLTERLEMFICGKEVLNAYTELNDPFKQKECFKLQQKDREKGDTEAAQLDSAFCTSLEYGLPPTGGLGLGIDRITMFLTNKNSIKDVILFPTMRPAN
UniProt P9WFT3, whole entry: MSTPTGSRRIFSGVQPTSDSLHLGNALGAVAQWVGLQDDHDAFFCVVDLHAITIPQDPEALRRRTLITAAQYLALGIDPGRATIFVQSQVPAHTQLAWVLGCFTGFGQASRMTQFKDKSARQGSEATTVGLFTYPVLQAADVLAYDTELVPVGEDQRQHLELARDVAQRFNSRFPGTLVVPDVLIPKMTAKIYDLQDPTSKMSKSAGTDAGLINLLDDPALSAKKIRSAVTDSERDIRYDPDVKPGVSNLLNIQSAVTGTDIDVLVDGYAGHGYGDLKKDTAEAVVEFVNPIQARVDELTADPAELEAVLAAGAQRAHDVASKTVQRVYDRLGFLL

Values are the deposited “Percent Effect”, in %. How 0% and 100% were set is not recorded. Most values in the screen are low, and negative values occur. This is an unselected part of the compounds tested. Two or more numbers in one place are separate tests of the same structure; such repeats can differ widely. A dash means the value is not listed here; it may have been measured.

LiHisRS: 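Enzyme assay of histidyl-tRNA synthetase; the read-out is not stated. Target: Histidine-tRNA ligase, Leishmania infantum (UniProt A4I591). Compounds at 30 µM. The record gives no direction; compounds that gave an IC50 in retests scored well above the rest, so higher reads as stronger inhibition. The assay is labelled LdHisRS but filed under L. infantum. About 69,000 compounds were tested under these conditions; 0.6% (about 410) showed 50% or more at least once.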
CoaBC: 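Coenzyme A biosynthesis protein CoaBC, Mycobacterium tuberculosis (UniProt P9WNZ1). Enzyme assay of CoaBC with a phosphate dye (Biomol Green) read at 650 nm. Compounds at 30 µM. Direction is inferred from only a few compounds that gave an IC50; most scored high, so higher reads as stronger inhibition. Most strong results did not repeat in a second test. Size under these conditions: about 67,000 compounds, about 40 of them at 50% or above in at least one test.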
PfKRS1: 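Lysine-tRNA ligase, Plasmodium falciparum 3D7 (UniProt Q8IDJ8). Enzyme assay of the cytosolic lysyl-tRNA synthetase in 384-well plates, read by luminescence. Compounds at 30 µM. Direction is inferred from only a few compounds that gave an IC50; most scored high, so higher reads as stronger inhibition. Of about 69,000 compounds tested this way, about 49 (0.071%) reached 50% or more in at least one test.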
MtTrpRS: 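Tryptophan-tRNA ligase, Mycobacterium tuberculosis (UniProt P9WFT3). Enzyme assay of tryptophanyl-tRNA synthetase; the read-out is not stated. Concentration: 10 µM. Direction is not recorded; retested compounds ran higher, which suggests that high means inhibition. Of about 65,000 compounds tested this way, about 64 (0.098%) reached 50% or more in at least one test.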

compound,LiHisRS,CoaBC,PfKRS1,MtTrpRS
Cc1n[nH]c(C)c1C1COCCN1C(=O)c1cc(Cl)c[nH]1 (centres undefined),-214.9%,1.036%,-4.97%,-0.2227%
CC(C)NC(=O)CN(C)C1CCN(c2ccc(C#N)cn2)CC1,9.677%,-3.748%,7.019%,-6.795%
Cc1ccc(-c2ncc(CNc3cnccc3CO)s2)cc1,13.56%,4.893%,-0.7041%,-3.233%
O=C(COc1ccc(Cl)cc1Cl)N1CCCSCC1CN1CCOCC1 (centres undefined),10.43%,8.668%,1.709%,-2.812%
c1ccc(CO[C@H]2CO[C@@]3(CCN(Cc4ccoc4)C3)C2)nc1,11.65%,4.172%,7.452%,-0.402%
FC(F)(F)c1nc(NC2CCCCC2)c2ccccc2n1,-13.89%,-8.333%,2.204%,-1.944%
CC1CCCN(S(=O)(=O)N2CCOC3(CCCC3)C2)C1 (centres undefined),15.56%,-1.225%,1.063%,1.975%
O=C(O)Cc1nc2nccc(-c3ccc(F)cc3)n2n1,16.49%,-6.012%,1.788%,-
CC(C)NC(=O)C1CN(C(=O)c2ccccc2)CC12CCOCC2 (centres undefined),6.422%,-9.939%,2.85%,-1.604%
CC(C)(C)C(=O)NC[C@H]1Cn2c(-c3ccccc3)cnc2CO1,22.97%,13.47%,5.599%,1.29%
N#CC1(NC(=O)c2cc(Cl)c3c(c2)OCCCO3)CCC1,31.25%,2.066%,0.7548%,1.521%
COc1ccc(NC(=O)N(CCO)Cc2ccsc2)c(OC)c1,7.08%,-3.1%,3.416%,2.151%
O=C(Cc1cccs1)Nc1cnn(C2CCOCC2)c1,24.39%,5.216%,7.309%,8.315%
CNCc1cn(CC2CCN(CC(C)(C)CN3CCCC3)CC2)nn1,12.5%,1.118%,4.376%,-2.894%
Cc1cccc(CN2C[C@@H](F)[C@@H](OCc3nc4ccccc4[nH]3)C2)n1,29.73%,2.116% & 21.41%,7.554%,0.5339%
COCCN(Cc1ccoc1)C(=O)c1ccccn1,16.44%,-2.503%,1.763%,4.411%
Cc1cnn(CC2CN(Cc3nc(-c4ccoc4)no3)CCO2)c1 (centres undefined),33.33%,2.254%,4.624%,-3.521%
O=C(NCc1nccs1)N1CCOC(c2ccccc2Cl)C1 (centres undefined),-1.036%,-1.401%,-6.262%,3.988%
Cc1cnc(C)c(N2CCCC(CO)(Cc3ccccc3C)C2)n1 (centres undefined),-10.99%,0.6098%,-5.692%,2.119%
CCC1(CNC(=O)NC(c2nnc3n2CCC3)C(C)C)CCC1 (centres undefined),1.176%,-3.553%,-1.173%,0.1937%
Cc1cc(C2CCC2)nc(NCC(C)(C)N2CCCC2)n1,18.99%,3.422%,5.072%,0.05974%
Cc1ccc(-c2nc(CN(C)C3CCS(=O)(=O)C3)cs2)o1 (centres undefined),10.53%,5.242%,3.959%,-6.659%
CC(C)(C)C(=O)NCCc1cc2nc(-c3ccncc3)ccn2n1,4.225%,-7.152%,3.198%,-2.77%
Cc1cc(C)n(CCCC(=O)N2CC[C@H]3NCCC[C@]3(CO)C2)n1,19.35%,-6.388%,5.736%,0.3846%
CC1CN(C(=O)c2cscn2)c2ccccc2S1 (centres undefined),8.772%,13.31%,-0.8152%,7.869%
CC(O)CN1CCC(CNCc2ccc(OC(F)(F)F)cc2)CC1 (centres undefined),12.84%,6.65%,0.2935%,-1.664%
CCc1cc(N2CCN(C(C)=O)CC2)n2nc(C)c(C)c2n1,8.333%,-6.21%,0.09056%,12.14%
O=C(NCCCO)Nc1cccc(I)c1,22.22%,-4.657%,13.45%,0.2469%
O=C(c1cscn1)N1CCCC(n2cncn2)C1 (centres undefined),12.28%,0.8696%,0.7301%,3.644%
CC(CO)(NC(=O)NCc1ccc(Br)s1)C1CC1 (centres undefined),8.602%,4.639% & 20.09%,4.391%,2.917%
CN(C)S(=O)(=O)c1csc(C(=O)N2CCC(C(N)=O)CC2)c1,0%,-4.628%,1.66%,-0.4656%
CCOCCN1CCCC1CS(N)(=O)=O (centres undefined),27.5%,0.1266%,-2.691%,2.441%
FC(F)(F)c1cccc(OC2CCN(Cc3ccccn3)CC2)c1,8.333%,9.218%,0.03857%,3.635%
CNC(=O)c1ccc(NC(=O)NC(C)c2cc(C)oc2C)cc1 (centres undefined),12.9%,-3.075%,1.96%,-3.052%
CCc1nc(CN2CCCN(C(=O)Cc3cccs3)CC2)cs1,8%,-0.495%,0.509%,-2.006%
OC1(CNc2ccc(F)cc2)CCNCC1,22.92%,8.746%,7.389%,-5.575%
Nc1nc(NCCO)cc(N2CCc3c([nH]c4ccccc34)C2)n1,20.98%,6.667%,2.096%,5.012%
Cn1cc(-c2ccnc(NCC3CC3)n2)cn1,0%,7.625%,4.431%,0.8112%
O=C(CCCn1ccnc1)N[C@H]1CN(C2CCCC2)C[C@@H]1C1CC1,6.579%,-0.6452%,-0.4417%,-2.102%
O=C(Nc1cnccn1)[C@H]1C[C@H]2OCC[C@H]2N(c2ncc(F)cn2)C1,13.79%,-,11.92%,-2.913%
Cc1ccc2c(c1)C(NC1CC1)CC21CCNCC1 (centres undefined),8.108%,-2.97%,1.63%,-
O=C(Nc1ccccc1Oc1cccc(F)c1)NC1CCS(=O)(=O)C1 (centres undefined),3.448%,-4.069%,4.134%,-3.366%
CC(C)CN(Cc1ccccn1)Cc1ccccc1C(=O)O,-6.061%,-1.008%,1.237%,-2.624%
CC1(C)[C@H](Cc2cc(CN3CCCCC3)on2)C[C@@H]1NS(C)(=O)=O,27.78%,1.935%,-0.9854%,-4.368%
O=C(Nc1cccc(OCC(F)F)n1)c1ccncc1F,18.99%,3.422%,4.734%,0.5376%
O=C(CCn1c(=O)oc2ccccc21)NCC(O)c1ccccc1 (centres undefined),23.08%,-3.373%,3.844%,0.8414%
O=C(CCc1cscn1)NS(=O)(=O)c1ccc2c(c1)CCC2,24.04%,12.66%,3.53%,10.24%
CN(C)CCN1CCCC12CCCN(C(=O)c1cccnc1)C2 (centres undefined),24.77%,0.7059%,2.541%,-4.146%
Cc1ccccc1CCC1CCCN(C(=O)Cc2cc(=O)[nH]c(N)n2)C1 (centres undefined),18.33%,-1.284%,6.081%,3.635%
CCOCC(=O)N1C[C@@H](O)[C@H](NC(C)=O)C1,11.35%,12.35%,2.899%,-2.732%
CCn1nnnc1-c1cccc(NC(N)=O)c1,21.92%,1.195%,5.613%,-6.399%
CSCC(C)(O)CNc1ncccc1C(F)(F)F (centres undefined),10.96%,-2.686%,-0.1261%,1.04%

Some entries from above, unchanged:

* CCn1nnnc1-c1cccc(NC(N)=O)c1 : LiHisRS: 21.92%; CoaBC: 1.195%; PfKRS1: 5.613%; MtTrpRS: -6.399%
* CC1CN(C(=O)c2cscn2)c2ccccc2S1 (centres undefined) : LiHisRS: 8.772%; CoaBC: 13.31%; PfKRS1: -0.8152%; MtTrpRS: 7.869%
* COc1ccc(NC(=O)N(CCO)Cc2ccsc2)c(OC)c1 : LiHisRS: 7.08%; CoaBC: -3.1%; PfKRS1: 3.416%; MtTrpRS: 2.151%
* O=C(NCCCO)Nc1cccc(I)c1 : LiHisRS: 22.22%; CoaBC: -4.657%; PfKRS1: 13.45%; MtTrpRS: 0.2469%
* CC(O)CN1CCC(CNCc2ccc(OC(F)(F)F)cc2)CC1 (centres undefined) : LiHisRS: 12.84%; CoaBC: 6.65%; PfKRS1: 0.2935%; MtTrpRS: -1.664%

The values are deposited in ChEMBL (CHEMBL3988442, “University of Dundee, Small-Polar-MMV Screening Library” (2021)).